No constants are given. Whether binding was seen depends on the method and setting. Binding seen in cells or lysates may run through a third protein. Binding calls can cover weak binding; strength is not graded here. Sequences can lack the tags named with a protein.

For the test, the target named is T1, PgBamG (PGN_1735) with a C-terminal 7His-tag (Porphyromonas gingivalis) (UniProt B2RLK9).
T1 sequence (chain, tri-acylated lipid anchor; O-glycosylation, 7 sites): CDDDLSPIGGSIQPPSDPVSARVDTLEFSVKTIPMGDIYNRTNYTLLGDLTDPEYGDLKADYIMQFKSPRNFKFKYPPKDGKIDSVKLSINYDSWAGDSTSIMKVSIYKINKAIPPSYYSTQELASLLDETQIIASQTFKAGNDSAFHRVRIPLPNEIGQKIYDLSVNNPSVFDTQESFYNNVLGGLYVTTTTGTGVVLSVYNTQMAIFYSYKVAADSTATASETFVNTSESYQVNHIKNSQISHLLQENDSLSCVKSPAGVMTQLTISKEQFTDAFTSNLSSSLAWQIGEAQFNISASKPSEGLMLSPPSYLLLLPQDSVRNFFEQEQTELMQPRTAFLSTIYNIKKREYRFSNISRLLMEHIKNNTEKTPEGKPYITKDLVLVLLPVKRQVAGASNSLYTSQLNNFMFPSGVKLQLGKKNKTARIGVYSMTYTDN
The test is described as follows: cryo-EM structure.

Take PgBamI: the binding entry was “binds”.

These data come from doi:10.1101/2025.01.31.636011.
